Results of single-concentration screens

Chains of the proteins cited; added tags and fusions are not shown. Residues count along the entry.
UniProt I6X8D2, whole entry: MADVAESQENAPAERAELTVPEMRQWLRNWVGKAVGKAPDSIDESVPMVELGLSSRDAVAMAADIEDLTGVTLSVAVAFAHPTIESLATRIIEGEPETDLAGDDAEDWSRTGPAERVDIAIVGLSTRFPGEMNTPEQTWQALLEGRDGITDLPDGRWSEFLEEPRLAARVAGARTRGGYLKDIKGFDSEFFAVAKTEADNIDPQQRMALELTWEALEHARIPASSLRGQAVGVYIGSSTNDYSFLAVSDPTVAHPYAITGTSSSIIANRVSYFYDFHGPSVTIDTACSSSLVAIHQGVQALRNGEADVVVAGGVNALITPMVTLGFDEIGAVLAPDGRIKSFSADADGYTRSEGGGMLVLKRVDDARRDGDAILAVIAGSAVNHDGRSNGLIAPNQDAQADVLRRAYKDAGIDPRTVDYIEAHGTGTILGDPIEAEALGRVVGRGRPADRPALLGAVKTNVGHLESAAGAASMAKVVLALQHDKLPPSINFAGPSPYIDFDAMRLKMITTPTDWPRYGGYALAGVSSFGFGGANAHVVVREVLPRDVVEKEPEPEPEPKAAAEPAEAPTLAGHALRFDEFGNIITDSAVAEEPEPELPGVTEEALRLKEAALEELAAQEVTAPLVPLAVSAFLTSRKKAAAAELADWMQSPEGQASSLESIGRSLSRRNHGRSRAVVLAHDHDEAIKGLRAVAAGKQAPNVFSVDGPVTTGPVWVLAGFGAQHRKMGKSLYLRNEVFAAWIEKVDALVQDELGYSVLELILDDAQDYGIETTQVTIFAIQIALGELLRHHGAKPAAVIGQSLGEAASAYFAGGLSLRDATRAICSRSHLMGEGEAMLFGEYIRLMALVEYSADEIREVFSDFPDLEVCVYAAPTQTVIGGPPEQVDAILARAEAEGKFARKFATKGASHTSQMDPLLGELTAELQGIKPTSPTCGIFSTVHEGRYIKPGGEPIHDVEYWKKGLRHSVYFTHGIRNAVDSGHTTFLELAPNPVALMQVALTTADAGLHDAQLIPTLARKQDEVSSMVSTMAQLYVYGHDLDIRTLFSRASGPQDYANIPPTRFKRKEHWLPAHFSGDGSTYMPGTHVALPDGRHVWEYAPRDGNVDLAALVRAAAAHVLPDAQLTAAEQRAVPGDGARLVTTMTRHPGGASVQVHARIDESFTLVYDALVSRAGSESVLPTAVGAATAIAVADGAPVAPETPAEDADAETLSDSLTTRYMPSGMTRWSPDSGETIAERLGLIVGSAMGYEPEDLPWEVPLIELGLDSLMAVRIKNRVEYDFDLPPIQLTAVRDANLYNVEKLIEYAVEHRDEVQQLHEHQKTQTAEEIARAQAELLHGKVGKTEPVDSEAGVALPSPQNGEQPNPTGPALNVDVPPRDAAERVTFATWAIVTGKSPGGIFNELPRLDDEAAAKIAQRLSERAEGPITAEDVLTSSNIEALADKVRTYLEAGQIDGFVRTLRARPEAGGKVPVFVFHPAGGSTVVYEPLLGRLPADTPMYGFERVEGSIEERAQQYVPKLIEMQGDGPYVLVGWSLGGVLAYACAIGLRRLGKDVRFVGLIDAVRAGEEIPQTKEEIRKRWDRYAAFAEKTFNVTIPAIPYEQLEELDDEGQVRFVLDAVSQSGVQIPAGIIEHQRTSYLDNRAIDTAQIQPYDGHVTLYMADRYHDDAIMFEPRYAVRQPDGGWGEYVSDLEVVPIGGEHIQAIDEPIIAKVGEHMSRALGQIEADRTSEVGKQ
UniProt A4I591, 1-473: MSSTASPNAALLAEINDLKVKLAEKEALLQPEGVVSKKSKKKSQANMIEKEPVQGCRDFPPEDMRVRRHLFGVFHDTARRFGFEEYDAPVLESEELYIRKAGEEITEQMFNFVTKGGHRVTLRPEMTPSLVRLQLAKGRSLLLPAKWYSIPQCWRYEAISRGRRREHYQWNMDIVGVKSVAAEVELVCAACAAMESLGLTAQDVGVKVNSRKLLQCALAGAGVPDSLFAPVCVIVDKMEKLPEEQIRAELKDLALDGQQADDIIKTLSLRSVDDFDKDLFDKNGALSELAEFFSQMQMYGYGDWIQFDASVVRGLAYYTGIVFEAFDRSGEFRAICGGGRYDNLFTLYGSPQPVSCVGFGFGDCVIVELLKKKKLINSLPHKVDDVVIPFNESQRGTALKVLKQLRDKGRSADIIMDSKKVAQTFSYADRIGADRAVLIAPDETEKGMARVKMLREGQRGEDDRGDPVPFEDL

The values are deposited in ChEMBL (CHEMBL3988442, “University of Dundee, Small-Polar-MMV Screening Library” (2021)).

The filed quantity is “Percent Effect” (%).
How 0% and 100% were set is not recorded. Most values in the screen are low, and negative values occur.
This is an unselected part of the compounds tested.
A dash means the value is not listed here; it may have been measured.

Pks13 thioesterase: 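Polyketide synthase Pks13, Mycobacterium tuberculosis (UniProt I6X8D2). Enzyme assay of the thioesterase domain of polyketide synthase 13; the read-out is not stated. Compounds at 30 µM. The record gives no direction; the compounds picked for IC50 retests had high values, so higher reads as stronger inhibition. Size under these conditions: about 67,000 compounds, about 300 of them at 50% or above in at least one test.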
LiHisRS: 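Histidine-tRNA ligase, Leishmania infantum (UniProt A4I591). Enzyme assay of histidyl-tRNA synthetase; the read-out is not stated. Tested at 30 µM. The record gives no direction; compounds that gave an IC50 in retests scored well above the rest, so higher reads as stronger inhibition. The assay is labelled LdHisRS but filed under L. infantum. Of about 69,000 compounds tested this way, about 410 (0.6%) reached 50% or more in at least one test.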

| SMILES | Pks13 thioesterase | LiHisRS |
|---|---|---|
| `O=C(C1CCC1)N1C[C@@H](c2ccsc2)[C@@H]2CN(C3CCCC3)CC[C@@H]21` | -5.526 | 4.255 |
| `CNS(=O)(=O)CC(=O)N1CC2(CCCC2)c2c(F)cccc21` | -39.08 | 19.17 |
| `Cc1cc(N2C[C@H](NC(=O)C3(C#N)CCOCC3)[C@@H](C(C)C)C2)ccn1` | -1.361 | 0 |
| `O=C(NCCOc1ccc(F)cc1)C1CCCN(C(=O)C2CC2)C1` (stereo not drawn) | -37.18 | 13.33 |
| `CCn1nnc2c1C(COCC(=O)N(C)C)CN(Cc1ccoc1)C2` (stereo not drawn) | 15.24 | 5.66 |
| `CS(=O)(=O)N1CC2(CCN(Cc3ccccn3)C2)Cc2ccccc21` (stereo not drawn) | -9.332 | 20.69 |
| `CC[C@@H]1N(Cc2ccsc2)CCC[C@]12CCC(=O)N2C` | -12.84 | -26.83 |
| `CN(Cc1cc(Br)cn1C)C(=O)c1ccon1` | -2.137 | 6.349 |
| `COC(=O)c1ncccc1N1CCCCC1` | 4.466 | 10.62 |
| `Cc1ccc(C(=O)N2CCN3C[C@H](Oc4cccc(F)c4)C[C@H]3C2)cn1` | -23.68 | 36.11 |
| `CC(C)c1cc(O)nc(C2CCCN2C(=O)C2CC2)n1` (stereo not drawn) | 0.6786 | 7.368 |
| `O=C(Cc1ccccc1)N1C[C@@H]2OCCN(CC3CCCO3)[C@@H]2C1` (stereo partly drawn) | -8.012 | 14.52 |
| `Cc1n[nH]cc1CNCC1(c2cccc(F)c2)CCOCC1` | -35.19 | 8.901 |
| `CCOC(=O)C1CCCN(Cc2c[nH]nc2-c2cc3ccccc3o2)C1` (stereo not drawn) | -29.26 | 6.557 |
| `CC(C)N1CCCCC1c1nc(N(C)C)ncc1I` (stereo not drawn) | -24.18 | 12.86 |
| `CC(=O)N1CCC(c2cnc(-c3c(C)nn(C)c3C)cn2)CC1` | 6.008 | 4 |
| `Cn1cc(CN2C[C@H]3CCC[C@@]3(COc3cccnc3)C2)cn1` | -4.099 | 6.306 |
| `COCCNC(=O)c1cc(-c2ccc3c(c2)CCO3)n[nH]1` | -14.68 | 13.16 |
| `Cc1ccccc1CNC(=O)C1CCN(Cc2nccn2C)CC1` | -1.375 | 12.5 |
| `Cc1noc(CN(C)c2nc(-c3ccco3)nc3c2CCN(C)CC3)n1` | 18.04 | 8.434 |
| `Cc1nc(CC(=O)N2CCCCC2Cn2cccn2)cs1` (stereo not drawn) | -29.17 | 12.07 |
| `CC(C)n1ccnc1C1CCCN(c2ccncc2F)C1` (stereo not drawn) | -25.28 | 19.79 |
| `CCC(CN1CCOCC1)n1cncc1-c1ccc2c(c1)CCCN2C` (stereo not drawn) | -21.06 | 24.11 |
| `Cc1noc(OCC(=O)N2CCCCC2C)n1` (stereo not drawn) | -13.27 | 12 |
| `O=C(CCc1nccs1)N1CCN(c2cccnn2)CC1` | -15.78 | 16 |
| `c1ccc(-c2cnc3n2CCNC32CCNCC2)cc1` | - | -3.448 |
| `Nc1nnc(CCCn2nnc(-c3ccccc3F)n2)s1` | -17.1 | 3.571 |
| `O=C(Cc1ccc(F)cc1)N1CCCCC1c1ccn2ccnc2n1` (stereo not drawn) | -33.39 | 2.778 |
| `Cc1cc(F)ccc1S(=O)(=O)NCc1cccc(C(=O)N2CCCC2)c1` | -60.24 | 8 |
| `Cc1cnc(N2Cc3nccn3CC(Cn3nc(C)nc3C)C2)nc1` (stereo not drawn) | -11.52 | 22.37 |
| `Cc1nc(S(=O)(=O)N2CCc3[nH]nc(CCC(C)C)c3C2)cn1C` | -12.97 | 11.43 |
| `CC(NCC1(N(C)C)CCOCC1)c1ccc(Cl)cc1` (stereo not drawn) | 8.452 | 10.34 |
| `Cc1nn(C)c(N2CCOCC2)c1CNC1CCc2cc(F)ccc21` (stereo not drawn) | -0.6653 | 9.375 |
| `O=C(c1ccc(Cn2cc(Br)cn2)cc1)N1CCOCC1` | -22.37 | 14.71 |
| `CCN(C)c1ncnc2c1CCN(C(=O)COC)CC2` | -33.02 | 12.33 |
| `CC(C)OCCNC1(c2ccc(F)cc2)CCOCC1` | -14.95 | 0 |
| `COc1ccc(NC(=O)c2ccoc2C)c(N2CCN(C(C)=O)CC2)n1` | -9.458 | 8.036 |
| `Cc1cnn(CCNCc2cc(C)no2)c1` | 2.681 | 3.226 |
| `CC(c1cccc(S(N)(=O)=O)c1)N(C)CCOC(C)(C)C` (stereo not drawn) | -17.73 | 10.26 |
| `Cn1cc(CC2CC(=O)N(Cc3ccc(Cl)cc3)C2=O)cn1` (stereo not drawn) | -8.97 | -0.885 |
| `O=C(Cn1nc2c(cc1=O)CSCC2)N[C@@H](Cc1ccccc1)C(=O)O` | -12.32 | 14.13 |
| `COc1ccc(CNC(C)Cn2cccn2)cc1F` (stereo not drawn) | -20.02 | 12.17 |
| `Cc1nccn1C1CCCN(C(=O)Cc2cn3ccccc3n2)C1` (stereo not drawn) | -19.79 | 15.38 |
| `Cc1csc2nc3n(c(=O)c12)CCN(Cc1ccccn1)CC3` | -4.559 | 7.368 |
| `Cc1cn([C@@H]2CC3(CCNCC3)OC[C@@]2(C)O)c(=O)[nH]c1=O` | 8.135 | 14.77 |
| `CNC(=O)CN1CCC(OCc2ccc(Cl)c(Cl)c2)CC1` | -1.145 | -4.762 |
| `c1ccc(-c2nc(CNC3CCc4ncnn4C3)no2)cc1` (stereo not drawn) | -3.027 | 11.61 |
| `COc1c(CNCC(=O)N2CCN(C)CC2)c(C(C)C)nn1C` | -4.677 | 17.65 |
| `Cc1ccc(CN2Cc3nccn3CC(CN(C)C)C2)s1` (stereo not drawn) | -0.734 | 13.76 |
| `CC(CNC(=O)c1ccc(C#N)cc1)N1CCc2ccccc21` (stereo not drawn) | -1.74 | 1.653 |
| `Cc1cc(C2CCCN(C(=O)COc3cc(F)ccc3F)C2)n[nH]1` (stereo not drawn) | -1.578 | 4.762 |
| `CN(CC(=O)NCc1ccccn1)C1CCCN(c2cccnn2)C1` (stereo not drawn) | -13.85 | 8.036 |
| `COC(=O)c1cc(NC(=O)NCC2CCS(=O)(=O)C2)ccc1Cl` (stereo not drawn) | 7.419 | 4.918 |
| `Cc1ccc(CN2CCC3(CC2)C(c2ccccc2)CC(=O)N3C)o1` (stereo not drawn) | - | 13.64 |
| `Cc1cc(F)ccc1S(=O)(=O)NCc1[nH]ncc1Br` | -24.05 | 16.44 |
| `Cc1cc(CN2CCCC(CNC(=O)Cn3cccn3)C2)oc1C` (stereo not drawn) | 0.7044 | 15.08 |
| `Clc1ccccc1C1(c2ccnc(C3CCCC3)n2)CCNCC1` | 1.675 | 36.47 |
| `Cc1nn(C)c2c(NCc3ccncc3)nc(C3CC3)nc12` | -14.1 | 17.7 |
| `CC(C)c1ncncc1C(=O)N1CCN(Cc2cscn2)CC1` | -18.05 | 24.62 |
| `CN(CC(=O)N1CC(Oc2ccccc2Cl)C1)Cc1ccncc1` | -25.9 | 9.524 |
| `Cc1ccc(C(=O)N2CCc3ncnc(C)c3CC2)cn1` | -25.59 | 24.32 |
| `CN(C)CC(=O)N1CCC2(CC1)Cc1ccccc1CN(C)C2=O` | -40.09 | -44.23 |
| `Cc1nc(CN2C(=O)CC[C@@H]3[C@H]2CCN3C(=O)NC2CC2)cs1` | -22.69 | 10.53 |
| `O=S(=O)(C1CC1)N1CCn2cc(CNc3ccccn3)nc2C1` | -34.61 | 16.67 |
| `CCN(Cc1ccc(OC)c(F)c1)Cc1nc2c(cnn2C)c(=O)[nH]1` | -12.35 | 7.965 |
| `Cc1nc(NC2CCCCC2)cc(C2CCCNC2)n1` (stereo not drawn) | -18.96 | 0 |
| `CC1CN(Cc2noc(C3CC3)n2)CCN1Cc1noc(C2CC2)n1` (stereo not drawn) | -5.491 | 15.25 |
| `CC(=O)N1CCn2cc(CNC(=O)c3cccn3C)nc2C1` | -17.25 | 10.95 |
| `Cc1nn(CC(=O)NCCc2ccncc2)c(=O)n1Cc1ccccc1` | -12.21 | 18.57 |
| `COc1ccc(S(=O)(=O)N2Cc3c(CN(C)C)nn(C)c3C2)cc1` | -26.59 | 18.58 |
| `CCC(Cn1ccnc1)n1cnc2scc(C)c2c1=O` (stereo not drawn) | -20.05 | -23.08 |
| `Cc1ccccc1CNC(=O)CN1CCCC(Cc2nccn2C)C1` (stereo not drawn) | -10.42 | 10.71 |
| `CCNC(=O)N1C[C@@H]2OCC(=O)N(CC3CCCCC3)[C@@H]2C1` | 30.62 | 8.108 |
| `CC(C)(C)CN1CC(O)CN(C(=O)c2cccc(C(F)(F)F)c2)CC1=O` (stereo not drawn) | 7.797 | 18.37 |
| `COc1ccccc1C(O)CNCc1c(C(C)C)nn(C)c1N(C)C` (stereo not drawn) | -10.95 | 8.219 |
| `Cc1nonc1NC(=O)c1ccc(F)c(COCC2CC2)c1` | -11.27 | 13.79 |
| `CC(NC(=O)Nc1cccnc1N1CCCC1)c1nncn1C` (stereo not drawn) | 56.05 | 38.1 |

Some entries from above, unchanged:

| SMILES | Pks13 thioesterase | LiHisRS |
|---|---|---|
| `CC(C)OCCNC1(c2ccc(F)cc2)CCOCC1` | -14.95 | 0 |
| `CC(NCC1(N(C)C)CCOCC1)c1ccc(Cl)cc1` (stereo not drawn) | 8.452 | 10.34 |
| `CC(=O)N1CCn2cc(CNC(=O)c3cccn3C)nc2C1` | -17.25 | 10.95 |
| `COc1c(CNCC(=O)N2CCN(C)CC2)c(C(C)C)nn1C` | -4.677 | 17.65 |
| `Cc1cc(F)ccc1S(=O)(=O)NCc1[nH]ncc1Br` | -24.05 | 16.44 |
| `CC(C)n1ccnc1C1CCCN(c2ccncc2F)C1` (stereo not drawn) | -25.28 | 19.79 |